# Test results reported in the supplement of paper PMC8728848.
# This is one part of the list.
# B1: SAOUHSC 02783 (Staphylococcus aureus), Q5HD69 (protein)
# chain: MIHSKKLTLGICLVLLIILIVGYVIMTKTNGRNAQIKDTFNQTLKLYPTKNLDDFYDKEGFRDQEFKKGDKGTWIVNSEMVIEPKGKDMETRGMVLYINRNTRTTKGYYFISEMTDDSNGRPKDDEKRYPVKMEHNKIIPTKPLPNDKLKKEIENFKFFVQYGNFKDINDYKDGDISYNPNVPSYSAKYQLNNDDYNVQQLRKRYDIPTKQAPKLLLKGDGDLKGSSVGSRSLEFTFVENKEENIYFTDSVQYTPSEDTRYESN
# Key:
# Test in all cases: glycan array binding signal (z-score within array); higher = stronger binding
# Settings in all cases: glycan notation: IUPAC condensed, linker removed
# [1] = biological target: GlcNAc(b1-3)Gal(b1-4)GlcNAc(b1-3)Gal(b1-4)GlcNAc(b1-3)GalNAc
# Summary of the method: (§1)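 Glycan array data came from 3228 arrays in the Consortium for Functional Glycomics database, and only arrays with an available protein sequence were kept. Glycan names were put into IUPAC-condensed notation, and columns mapping to the same glycan were averaged. The binding signal is a within-array Z-score, averaged across arrays of one protein sequence run at different concentrations or buffers and across linkers. A negative Z-score can be read as non-binding.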
# [2] = biological target: GlcNAc(b1-3)Gal(b1-4)GlcNAc(b1-3)GalNAc
# Summary of the method: as §1
# [3] = biological target: GlcNAc(b1-3)Gal(b1-4)GlcNAc(b1-3)[GlcNAc(b1-3)Gal(b1-4)GlcNAc(b1-3)]GalNAc
# Summary of the method: as §1
# [4] = biological target: GlcNAc(b1-3)Gal(b1-4)GlcNAc(b1-6)[Gal(b1-3)]GalNAc
# Summary of the method: as §1
# [5] = biological target: GlcNAc(b1-3)Gal(b1-4)GlcNAc(b1-6)[GlcNAc(b1-3)Gal(b1-3)]GalNAc
# Summary of the method: as §1
# [6] = biological target: GlcNAc(b1-3)Gal(b1-4)GlcNAc(b1-6)[GlcNAc(b1-3)]Gal(b1-4)GlcNAc
# Summary of the method: as §1
# GlcNAc(b1-3)GalNAc = biological target: GlcNAc(b1-3)GalNAc
# Summary of the method: as §1
# GlcNAc(b1-3)Man = biological target: GlcNAc(b1-3)Man
# Summary of the method: as §1
# [7] = biological target: GlcNAc(b1-3)[GlcNAc(b1-4)][GlcNAc(b1-6)]GlcNAc
# Summary of the method: as §1
# [8] = biological target: GlcNAc(b1-3)[GlcNAc(b1-6)]Gal(b1-4)GlcNAc
# Summary of the method: as §1
# [9] = biological target: GlcNAc(b1-3)[GlcNAc(b1-6)]GalNAc
# Summary of the method: as §1
# [10] = biological target: GlcNAc(b1-4)Gal(b1-4)GlcNAc
# Summary of the method: as §1
# GlcNAc(b1-4)GlcNAc = biological target: GlcNAc(b1-4)GlcNAc
# Summary of the method: as §1
# [11] = biological target: GlcNAc(b1-4)GlcNAc(b1-4)GlcNAc
# Summary of the method: as §1
# [12] = biological target: GlcNAc(b1-4)GlcNAc(b1-4)GlcNAc(b1-4)GlcNAc(b1-4)GlcNAc
# Summary of the method: as §1
# [13] = biological target: GlcNAc(b1-4)GlcNAc(b1-4)GlcNAc(b1-4)GlcNAc(b1-4)GlcNAc(b1-4)GlcNAc
# Summary of the method: as §1
# [14] = biological target: GlcNAc(b1-4)[GlcNAc(b1-6)]GalNAc
# Summary of the method: as §1
# [15] = biological target: GlcNAc(b1-6)Gal(b1-4)GlcNAc
# Summary of the method: as §1
# GlcNAc(b1-6)GalNAc = biological target: GlcNAc(b1-6)GalNAc
# Summary of the method: as §1
# [16] = biological target: GlcNAc6S(b1-3)Gal(b1-4)GlcNAc
# Summary of the method: as §1
# Kdn(a2-3)Gal(b1-3)GalNAc = biological target: Kdn(a2-3)Gal(b1-3)GalNAc
# Summary of the method: as §1
# Kdn(a2-3)Gal(b1-3)GlcNAc = biological target: Kdn(a2-3)Gal(b1-3)GlcNAc
# Summary of the method: as §1
# Kdn(a2-3)Gal(b1-4)Glc = biological target: Kdn(a2-3)Gal(b1-4)Glc
# Summary of the method: as §1
# Kdn(a2-3)Gal(b1-4)GlcNAc = biological target: Kdn(a2-3)Gal(b1-4)GlcNAc
# Summary of the method: as §1
# [17] = biological target: Kdn(a2-3)Gal(b1-4)[Fuc(a1-3)]GlcNAc
# Summary of the method: as §1
# Kdn(a2-6)Gal(b1-4)GlcNAc = biological target: Kdn(a2-6)Gal(b1-4)GlcNAc
# Summary of the method: as §1
# [18] = biological target: Man(a1-2)Man(a1-2)Man(a1-3)Man
# Summary of the method: as §1
# [19] = biological target: Man(a1-2)Man(a1-2)Man(a1-6)[Man(a1-3)]Man
# Summary of the method: as §1
# Man(a1-2)Man(a1-3)Man = biological target: Man(a1-2)Man(a1-3)Man
# Summary of the method: as §1
# [20] = biological target: Man(a1-2)Man(a1-3)[Man(a1-2)Man(a1-6)]Man
# Summary of the method: as §1
# [21] = biological target: Man(a1-2)Man(a1-3)[Man(a1-2)Man(a1-6)]Man(a1-6)[Man(a1-2)Man(a1-2)Man(a1-3)]Man
# Summary of the method: as §1
# [22] = biological target: Man(a1-2)Man(a1-3)[Man(a1-2)Man(a1-6)]Man(a1-6)[Man(a1-2)Man(a1-2)Man(a1-3)]Man(b1-4)GlcNAc(b1-4)GlcNAc
# Summary of the method: as §1
# [23] = biological target: Man(a1-2)Man(a1-3)[Man(a1-6)]Man(a1-6)[Man(a1-2)Man(a1-3)]Man(b1-4)GlcNAc(b1-4)GlcNAc
# Summary of the method: as §1
# [24] = biological target: Man(a1-2)Man(a1-6)[Man(a1-3)]Man(a1-6)[Man(a1-2)Man(a1-2)Man(a1-3)]Man
# Summary of the method: as §1
# [25] = biological target: Man(a1-2)Man(a1-6)[Man(a1-3)]Man(a1-6)[Man(a1-2)Man(a1-2)Man(a1-3)]Man(b1-4)GlcNAc(b1-4)GlcNAc
# Summary of the method: as §1
# Man(a1-3)[Man(a1-6)]Man = biological target: Man(a1-3)[Man(a1-6)]Man
# Summary of the method: as §1
# [26] = biological target: Man(a1-3)[Man(a1-6)]Man(a1-6)[Man(a1-2)Man(a1-3)]Man(b1-4)GlcNAc(b1-4)GlcNAc
# Summary of the method: as §1
binder,measurement,setting,value
B1,glycan array binding signal (z-score),[1],-0.082
same,glycan array binding signal (z-score),[2],-1.3
same,glycan array binding signal (z-score),[3],-0.404
same,glycan array binding signal (z-score),[4],-1.3
same,glycan array binding signal (z-score),[5],0.027
same,glycan array binding signal (z-score),[6],-1.07
same,glycan array binding signal (z-score),GlcNAc(b1-3)GalNAc,-0.844
same,glycan array binding signal (z-score),GlcNAc(b1-3)Man,0.318
same,glycan array binding signal (z-score),[7],-0.431
same,glycan array binding signal (z-score),[8],0.098
same,glycan array binding signal (z-score),[9],-0.603
same,glycan array binding signal (z-score),[10],0.117
same,glycan array binding signal (z-score),GlcNAc(b1-4)GlcNAc,0.691
same,glycan array binding signal (z-score),[11],-0.387
same,glycan array binding signal (z-score),[12],-0.476
same,glycan array binding signal (z-score),[13],1.17
same,glycan array binding signal (z-score),[14],0.009
same,glycan array binding signal (z-score),[15],0.133
same,glycan array binding signal (z-score),GlcNAc(b1-6)GalNAc,0.195
same,glycan array binding signal (z-score),[16],-0.38
same,glycan array binding signal (z-score),Kdn(a2-3)Gal(b1-3)GalNAc,0.785
same,glycan array binding signal (z-score),Kdn(a2-3)Gal(b1-3)GlcNAc,0.199
same,glycan array binding signal (z-score),Kdn(a2-3)Gal(b1-4)Glc,-0.879
same,glycan array binding signal (z-score),Kdn(a2-3)Gal(b1-4)GlcNAc,0.212
same,glycan array binding signal (z-score),[17],-0.039
same,glycan array binding signal (z-score),Kdn(a2-6)Gal(b1-4)GlcNAc,-0.224
same,glycan array binding signal (z-score),[18],-1.16
same,glycan array binding signal (z-score),[19],-0.389
same,glycan array binding signal (z-score),Man(a1-2)Man(a1-3)Man,-1.04
same,glycan array binding signal (z-score),[20],-2.14
same,glycan array binding signal (z-score),[21],1.26
same,glycan array binding signal (z-score),[22],-0.676
same,glycan array binding signal (z-score),[23],0.494
same,glycan array binding signal (z-score),[24],-1.35
same,glycan array binding signal (z-score),[25],-0.452
same,glycan array binding signal (z-score),Man(a1-3)[Man(a1-6)]Man,-0.081
same,glycan array binding signal (z-score),[26],1.09

# 3 successive entries out of the list so far, for reference:
binder,measurement,setting,value
B1,glycan array binding signal (z-score),Kdn(a2-6)Gal(b1-4)GlcNAc,-0.224
same,glycan array binding signal (z-score),[18],-1.16
same,glycan array binding signal (z-score),[19],-0.389
